According to article PMC7819943, “Rice protein-binding microarrays: a tool to detect cis-acting elements near promoter regions in rice”:
Some of the results follow.

Chains of the proteins cited; added tags and fusions are not shown.
UniProt Q0JBA9, entry or part of it: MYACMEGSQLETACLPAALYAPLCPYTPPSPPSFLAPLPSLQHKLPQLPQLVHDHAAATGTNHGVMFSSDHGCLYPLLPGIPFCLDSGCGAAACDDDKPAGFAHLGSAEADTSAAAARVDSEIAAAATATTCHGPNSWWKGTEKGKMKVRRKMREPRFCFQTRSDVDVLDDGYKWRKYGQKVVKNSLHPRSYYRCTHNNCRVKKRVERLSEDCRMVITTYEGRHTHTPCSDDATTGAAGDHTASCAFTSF

target: OsWRKY34 (Oryza sativa, UniProt Q0JBA9 1-250); test: protein-binding microarray (RPBM); PBS, 2% BSA, 51.3 ng/ul salmon testes DNA, 50 uM zinc acetate, 200 nM TF, 25 C, 1 h; high values mean tight binding; settings: protein: recombinant; tags: N-terminal polyhistidine and DsRed monomer fusion (pET32a); label: CyDye5-dUTP incorporated in the synthesized complementary strand; 3' TTTTT single-stranded linker to array surface; dsDNA, one strand shown
Outline: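 Using Ni–NTA, transcription factors fused N-terminally to polyhistidine and DsRed were purified after expression in E. coli BL21-CodonPlus. These were incubated at 200 nM with a blocked, double-stranded custom Agilent array for 1 h at 25 °C in a buffer containing 50 µM zinc acetate, and the array was washed. The binding signal is per-feature fluorescence intensity (arbitrary units) on an Axon 4000B scanner.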

**Q.** Which binding signal does the source give for “TCTCTCTTACTGTCGCTCTTCTAGCCGGTCTGTTCAAACCCGGAGTCACCTAGTGCAG” here?
**A.** Its binding signal is 10500 fluorescence intensity (a.u.).

**Q.** With “ACCTAGTCCAAAACCACCTGTACACTGTTCTCTCTAAAAACGGAGTCACCTAGTGCAG” as the sequence, how does the binding signal read?
**A.** The binding signal was 8680 fluorescence intensity (a.u.).

**Q.** “TAACCTCTGCATGTATGTTTCTTTTCGTTCTGATCATTCACGGAGTCACCTAGTGCAG” was tested. Which binding signal did it give?
**A.** The binding signal was 11000 fluorescence intensity (a.u.).

**Q.** For “ATAAAGGGCTGGTTTGGTTTGTGGCCTAACTTGACCTTACCGGAGTCACCTAGTGCAG”, which binding signal is on record?
**A.** The binding signal was 8180 fluorescence intensity (a.u.).

**Q.** “TGAAGATGTTTTTGCTGGTACTTTGGTACGTTATCCGTATCGGAGTCACCTAGTGCAG” was tested. Which binding signal did it give?
**A.** Its binding signal is 8170 fluorescence intensity (a.u.).

**Q.** For “CCATGTCCGGATTCTCTAGGATTGCCTCCAATTTCTTCGCCGGAGTCACCTAGTGCAG”, which binding signal is on record?
**A.** The binding signal was 8890 fluorescence intensity (a.u.).

**Q.** How did the binding signal turn out when “TCGCGACCTCTCATCTATCGATCTTTGCATACATATATATCGGAGTCACCTAGTGCAG” was run?
**A.** Its binding signal is 17800 fluorescence intensity (a.u.).

**Q.** “ACTAGTTATGCACTTTACTTTCATATCTCGTCTTCCGCACCGGAGTCACCTAGTGCAG” was tested. Which binding signal did it give?
**A.** The binding signal was 9010 fluorescence intensity (a.u.).

**Q.** “TCACCGCCTCCGACCCGTCTGGCCAAATTCGCGCACCTCCCGGAGTCACCTAGTGCAG” was tested. Which binding signal did it give?
**A.** Its binding signal is 9700 fluorescence intensity (a.u.).

**Q.** “CACTAATATGTGCTGTTATAAATGCTATTCCTTTGTTATTCGGAGTCACCTAGTGCAG” was tested. Which binding signal did it give?
**A.** Its binding signal is 8740 fluorescence intensity (a.u.).

**Q.** With “TTCCTTCATATTATGTGGCAACTCTCCGCGAAGTTCATTTCGGAGTCACCTAGTGCAG” as the sequence, how does the binding signal read?
**A.** The binding signal was 8750 fluorescence intensity (a.u.).

**Q.** For “ACGTTTGCGTTGAGGTGCTCTCTCTGAATTTTTCTTGTGCCGGAGTCACCTAGTGCAG”, which binding signal is on record?
**A.** Its binding signal is 8970 fluorescence intensity (a.u.).

**Q.** “CTTATGTACTTATGTAGTACTTATGTTGTTTGTTTTTTTTCGGAGTCACCTAGTGCAG” was tested. Which binding signal did it give?
**A.** The binding signal was 10800 fluorescence intensity (a.u.).

**Q.** Which binding signal does the source give for “ATCCTAAACAACATCCGGTACAATCTTTTTTTCTCAGCCCCGGAGTCACCTAGTGCAG” here?
**A.** Its binding signal is 8130 fluorescence intensity (a.u.).

**Q.** With “TGTCCATCCCATCCCATCCCAAGCGAGGCCGCGCGGCCTCCGGAGTCACCTAGTGCAG” as the sequence, how does the binding signal read?
**A.** Its binding signal is 8080 fluorescence intensity (a.u.).

**Q.** How did the binding signal turn out when “TTCGCCTCGCCTCGCCTCGCTCGCTGTCGCTTCCTCTCTCCGGAGTCACCTAGTGCAG” was run?
**A.** The binding signal was 8770 fluorescence intensity (a.u.).

**Q.** “GCCATCACCCGTCGTGTCGCTCTCGAGCCCCGCACGCCATCGGAGTCACCTAGTGCAG” was tested. Which binding signal did it give?
**A.** Its binding signal is 9020 fluorescence intensity (a.u.).

**Q.** How did the binding signal turn out when “CTCATACCCAGCGGCCCGCGGGCAGGGCTAGCTCGTTGACCGGAGTCACCTAGTGCAG” was run?
**A.** The binding signal was 11500 fluorescence intensity (a.u.).

**Q.** Which binding signal does the source give for “ATAACTTCGACTACATTCATATATATGCGTGACTTACTCCCGGAGTCACCTAGTGCAG” here?
**A.** Its binding signal is 9840 fluorescence intensity (a.u.).

**Q.** How did the binding signal turn out when “CGTGACACAATCGGACGCGGCTTGCCTGCTCCCTCGTTCTCGGAGTCACCTAGTGCAG” was run?
**A.** The binding signal was 8700 fluorescence intensity (a.u.).

**Q.** For “AGACGCGCTCTCCCTCTCGCCTCGCGGTCGCCTCGCTTTCCGGAGTCACCTAGTGCAG”, which binding signal is on record?
**A.** Its binding signal is 9830 fluorescence intensity (a.u.).

**Q.** How did the binding signal turn out when “ACTTATATACTTGGGGCAACTCTCCTTGATTCCCGCTTCTCGGAGTCACCTAGTGCAG” was run?
**A.** The binding signal was 9160 fluorescence intensity (a.u.).

**Q.** Which binding signal does the source give for “CGATCCCACCGACTCCCGGCCACCTCTGCTTCCCCGGCGACGGAGTCACCTAGTGCAG” here?
**A.** The binding signal was 9140 fluorescence intensity (a.u.).
